The chains behind the UniProt entries cited, without tags or fusion partners. Where a name states a change or a piece, a line headed by the entry shows the natural chain unless it says otherwise. A line that says so, or that is headed by a name, gives the form on record, which may keep a tag or linker. Residues count along the entry.
UniProt Q7Z2W4: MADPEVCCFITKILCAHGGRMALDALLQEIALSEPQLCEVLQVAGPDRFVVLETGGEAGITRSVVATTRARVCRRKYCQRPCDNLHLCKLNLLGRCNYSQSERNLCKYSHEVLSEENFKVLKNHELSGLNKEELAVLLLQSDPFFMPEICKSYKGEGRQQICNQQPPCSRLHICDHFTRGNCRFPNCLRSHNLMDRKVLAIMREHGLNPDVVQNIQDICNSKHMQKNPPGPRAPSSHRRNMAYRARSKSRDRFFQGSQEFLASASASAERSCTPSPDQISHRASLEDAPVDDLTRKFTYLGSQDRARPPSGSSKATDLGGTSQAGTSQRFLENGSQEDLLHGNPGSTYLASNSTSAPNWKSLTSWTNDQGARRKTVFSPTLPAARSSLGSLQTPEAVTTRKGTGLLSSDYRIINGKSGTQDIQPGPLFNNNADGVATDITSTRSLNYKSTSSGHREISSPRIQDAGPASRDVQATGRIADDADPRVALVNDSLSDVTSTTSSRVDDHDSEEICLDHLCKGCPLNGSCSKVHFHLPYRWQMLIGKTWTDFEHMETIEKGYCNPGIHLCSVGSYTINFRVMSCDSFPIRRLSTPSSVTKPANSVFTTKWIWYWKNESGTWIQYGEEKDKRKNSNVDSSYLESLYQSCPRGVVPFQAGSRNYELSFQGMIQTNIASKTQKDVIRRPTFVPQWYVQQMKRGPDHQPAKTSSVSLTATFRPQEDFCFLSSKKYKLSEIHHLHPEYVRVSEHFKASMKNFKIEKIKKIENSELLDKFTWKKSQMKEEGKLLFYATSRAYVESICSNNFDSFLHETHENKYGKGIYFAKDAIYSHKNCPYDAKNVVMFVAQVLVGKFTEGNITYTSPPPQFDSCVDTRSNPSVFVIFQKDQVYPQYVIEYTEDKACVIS
UniProt P51116: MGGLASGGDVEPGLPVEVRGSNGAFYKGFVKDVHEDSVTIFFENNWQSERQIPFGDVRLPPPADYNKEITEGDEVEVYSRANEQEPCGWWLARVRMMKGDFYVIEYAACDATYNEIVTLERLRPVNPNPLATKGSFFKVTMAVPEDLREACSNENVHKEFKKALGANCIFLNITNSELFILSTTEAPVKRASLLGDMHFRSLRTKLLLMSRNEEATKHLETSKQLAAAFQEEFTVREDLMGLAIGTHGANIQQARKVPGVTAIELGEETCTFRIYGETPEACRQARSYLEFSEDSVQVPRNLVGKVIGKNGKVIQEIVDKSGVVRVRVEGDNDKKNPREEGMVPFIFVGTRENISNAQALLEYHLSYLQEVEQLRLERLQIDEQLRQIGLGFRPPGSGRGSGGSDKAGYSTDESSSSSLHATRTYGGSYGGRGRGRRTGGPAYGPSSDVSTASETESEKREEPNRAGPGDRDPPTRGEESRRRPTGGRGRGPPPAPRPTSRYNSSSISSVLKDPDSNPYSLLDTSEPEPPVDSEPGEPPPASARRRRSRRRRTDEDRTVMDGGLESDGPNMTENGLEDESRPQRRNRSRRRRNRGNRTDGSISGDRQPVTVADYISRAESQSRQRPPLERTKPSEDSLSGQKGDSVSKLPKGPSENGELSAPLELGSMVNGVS
UniProt Q13547: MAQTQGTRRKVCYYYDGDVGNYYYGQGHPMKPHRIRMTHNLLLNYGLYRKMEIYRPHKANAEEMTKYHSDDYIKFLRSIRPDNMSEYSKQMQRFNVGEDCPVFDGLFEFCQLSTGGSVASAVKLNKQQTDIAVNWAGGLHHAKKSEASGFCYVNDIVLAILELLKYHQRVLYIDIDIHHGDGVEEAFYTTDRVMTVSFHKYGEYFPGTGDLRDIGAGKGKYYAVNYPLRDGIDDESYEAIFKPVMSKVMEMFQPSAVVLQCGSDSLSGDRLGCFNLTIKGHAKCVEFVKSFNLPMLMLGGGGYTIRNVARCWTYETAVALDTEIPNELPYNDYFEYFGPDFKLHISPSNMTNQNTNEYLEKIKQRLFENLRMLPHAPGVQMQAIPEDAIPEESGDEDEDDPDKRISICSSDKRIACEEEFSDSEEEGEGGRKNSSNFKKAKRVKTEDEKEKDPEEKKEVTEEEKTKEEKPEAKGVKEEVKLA
UniProt Q12905: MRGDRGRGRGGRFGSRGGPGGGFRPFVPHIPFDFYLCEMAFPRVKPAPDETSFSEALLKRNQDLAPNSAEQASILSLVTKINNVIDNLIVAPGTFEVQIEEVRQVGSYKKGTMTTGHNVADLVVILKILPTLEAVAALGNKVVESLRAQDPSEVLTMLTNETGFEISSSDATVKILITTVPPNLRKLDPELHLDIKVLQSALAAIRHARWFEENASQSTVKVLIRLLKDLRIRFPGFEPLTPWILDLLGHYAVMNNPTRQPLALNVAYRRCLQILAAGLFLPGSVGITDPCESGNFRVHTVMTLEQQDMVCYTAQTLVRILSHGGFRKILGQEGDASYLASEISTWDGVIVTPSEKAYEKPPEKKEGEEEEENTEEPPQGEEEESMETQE
UniProt P30153: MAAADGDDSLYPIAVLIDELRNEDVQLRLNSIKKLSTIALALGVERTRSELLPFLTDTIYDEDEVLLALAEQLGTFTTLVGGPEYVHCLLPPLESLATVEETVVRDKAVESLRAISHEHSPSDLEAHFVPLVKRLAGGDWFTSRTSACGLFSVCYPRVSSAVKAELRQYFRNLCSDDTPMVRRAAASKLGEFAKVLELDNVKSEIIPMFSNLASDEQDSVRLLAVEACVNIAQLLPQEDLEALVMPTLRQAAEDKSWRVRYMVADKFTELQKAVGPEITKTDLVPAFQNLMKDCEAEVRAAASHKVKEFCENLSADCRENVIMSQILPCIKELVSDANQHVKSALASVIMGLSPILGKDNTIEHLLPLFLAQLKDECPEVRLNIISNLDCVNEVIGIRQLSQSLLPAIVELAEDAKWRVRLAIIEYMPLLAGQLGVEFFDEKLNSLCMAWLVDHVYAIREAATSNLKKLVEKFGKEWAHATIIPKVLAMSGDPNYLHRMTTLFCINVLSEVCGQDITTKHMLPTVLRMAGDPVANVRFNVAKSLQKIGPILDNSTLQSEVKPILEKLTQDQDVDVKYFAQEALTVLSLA
Protein phosphatase 2, regulatory subunit A, beta (P30154-4, form named): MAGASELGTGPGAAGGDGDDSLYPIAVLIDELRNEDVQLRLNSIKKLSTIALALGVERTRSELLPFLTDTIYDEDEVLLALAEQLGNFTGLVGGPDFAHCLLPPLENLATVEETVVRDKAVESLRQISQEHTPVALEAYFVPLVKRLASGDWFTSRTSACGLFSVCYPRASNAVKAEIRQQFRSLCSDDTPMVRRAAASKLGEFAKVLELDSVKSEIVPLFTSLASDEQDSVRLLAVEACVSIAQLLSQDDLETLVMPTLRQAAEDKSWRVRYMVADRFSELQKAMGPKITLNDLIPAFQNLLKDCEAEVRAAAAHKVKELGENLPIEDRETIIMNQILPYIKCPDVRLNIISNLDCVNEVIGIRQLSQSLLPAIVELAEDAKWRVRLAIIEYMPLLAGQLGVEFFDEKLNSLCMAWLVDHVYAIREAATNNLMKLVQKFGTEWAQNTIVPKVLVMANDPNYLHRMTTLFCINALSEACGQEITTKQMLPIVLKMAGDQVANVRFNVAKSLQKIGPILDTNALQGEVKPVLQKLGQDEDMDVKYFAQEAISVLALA
UniProt O95793, residues 82-577: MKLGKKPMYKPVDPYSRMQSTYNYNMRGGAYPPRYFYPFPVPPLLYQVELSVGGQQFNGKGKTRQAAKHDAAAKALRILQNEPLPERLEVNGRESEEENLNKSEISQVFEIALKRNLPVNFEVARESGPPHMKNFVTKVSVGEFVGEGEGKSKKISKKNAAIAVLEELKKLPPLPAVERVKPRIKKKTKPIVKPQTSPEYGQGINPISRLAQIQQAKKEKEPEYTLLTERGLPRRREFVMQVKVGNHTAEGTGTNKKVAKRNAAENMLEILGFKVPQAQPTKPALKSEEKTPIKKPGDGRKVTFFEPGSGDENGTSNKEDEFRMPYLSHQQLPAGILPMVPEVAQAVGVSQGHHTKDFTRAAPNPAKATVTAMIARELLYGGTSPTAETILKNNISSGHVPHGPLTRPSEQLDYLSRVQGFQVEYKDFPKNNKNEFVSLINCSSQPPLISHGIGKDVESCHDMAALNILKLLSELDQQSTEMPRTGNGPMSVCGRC
UniProt P11387: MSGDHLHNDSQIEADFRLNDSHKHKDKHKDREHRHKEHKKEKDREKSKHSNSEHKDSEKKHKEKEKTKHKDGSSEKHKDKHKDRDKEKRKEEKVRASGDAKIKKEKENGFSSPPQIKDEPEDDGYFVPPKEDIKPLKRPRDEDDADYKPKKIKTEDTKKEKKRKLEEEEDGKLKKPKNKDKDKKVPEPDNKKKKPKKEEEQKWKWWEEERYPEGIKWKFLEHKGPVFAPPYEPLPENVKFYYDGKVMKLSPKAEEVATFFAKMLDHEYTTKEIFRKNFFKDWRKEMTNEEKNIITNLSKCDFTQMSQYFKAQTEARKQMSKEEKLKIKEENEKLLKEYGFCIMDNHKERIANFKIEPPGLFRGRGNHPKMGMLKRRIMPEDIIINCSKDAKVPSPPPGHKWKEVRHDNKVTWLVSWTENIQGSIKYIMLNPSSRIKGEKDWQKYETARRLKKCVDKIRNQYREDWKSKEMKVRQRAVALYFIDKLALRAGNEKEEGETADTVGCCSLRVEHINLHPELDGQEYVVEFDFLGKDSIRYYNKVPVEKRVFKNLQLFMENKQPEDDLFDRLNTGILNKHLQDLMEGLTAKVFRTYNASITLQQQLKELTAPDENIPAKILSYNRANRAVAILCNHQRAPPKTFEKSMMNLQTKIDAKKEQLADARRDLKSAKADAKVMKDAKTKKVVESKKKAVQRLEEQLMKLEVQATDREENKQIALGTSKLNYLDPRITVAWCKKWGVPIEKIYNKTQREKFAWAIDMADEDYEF
UniProt Q14258: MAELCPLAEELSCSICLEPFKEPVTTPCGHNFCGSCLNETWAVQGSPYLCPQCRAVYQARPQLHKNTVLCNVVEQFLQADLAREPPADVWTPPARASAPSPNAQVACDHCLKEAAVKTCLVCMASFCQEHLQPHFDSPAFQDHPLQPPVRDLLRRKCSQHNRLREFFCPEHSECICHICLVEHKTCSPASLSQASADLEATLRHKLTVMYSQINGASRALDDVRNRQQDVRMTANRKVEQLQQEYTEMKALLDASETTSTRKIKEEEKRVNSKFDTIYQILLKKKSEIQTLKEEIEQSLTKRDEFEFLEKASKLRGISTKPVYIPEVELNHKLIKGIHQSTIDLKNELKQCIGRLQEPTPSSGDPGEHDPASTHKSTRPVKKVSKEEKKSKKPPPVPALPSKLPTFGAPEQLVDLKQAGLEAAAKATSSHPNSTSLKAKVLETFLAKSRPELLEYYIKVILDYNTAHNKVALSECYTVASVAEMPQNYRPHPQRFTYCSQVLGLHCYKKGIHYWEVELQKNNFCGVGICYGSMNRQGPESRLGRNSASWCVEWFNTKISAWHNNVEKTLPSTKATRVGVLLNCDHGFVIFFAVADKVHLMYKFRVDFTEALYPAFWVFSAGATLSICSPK
UniProt Q96KR1: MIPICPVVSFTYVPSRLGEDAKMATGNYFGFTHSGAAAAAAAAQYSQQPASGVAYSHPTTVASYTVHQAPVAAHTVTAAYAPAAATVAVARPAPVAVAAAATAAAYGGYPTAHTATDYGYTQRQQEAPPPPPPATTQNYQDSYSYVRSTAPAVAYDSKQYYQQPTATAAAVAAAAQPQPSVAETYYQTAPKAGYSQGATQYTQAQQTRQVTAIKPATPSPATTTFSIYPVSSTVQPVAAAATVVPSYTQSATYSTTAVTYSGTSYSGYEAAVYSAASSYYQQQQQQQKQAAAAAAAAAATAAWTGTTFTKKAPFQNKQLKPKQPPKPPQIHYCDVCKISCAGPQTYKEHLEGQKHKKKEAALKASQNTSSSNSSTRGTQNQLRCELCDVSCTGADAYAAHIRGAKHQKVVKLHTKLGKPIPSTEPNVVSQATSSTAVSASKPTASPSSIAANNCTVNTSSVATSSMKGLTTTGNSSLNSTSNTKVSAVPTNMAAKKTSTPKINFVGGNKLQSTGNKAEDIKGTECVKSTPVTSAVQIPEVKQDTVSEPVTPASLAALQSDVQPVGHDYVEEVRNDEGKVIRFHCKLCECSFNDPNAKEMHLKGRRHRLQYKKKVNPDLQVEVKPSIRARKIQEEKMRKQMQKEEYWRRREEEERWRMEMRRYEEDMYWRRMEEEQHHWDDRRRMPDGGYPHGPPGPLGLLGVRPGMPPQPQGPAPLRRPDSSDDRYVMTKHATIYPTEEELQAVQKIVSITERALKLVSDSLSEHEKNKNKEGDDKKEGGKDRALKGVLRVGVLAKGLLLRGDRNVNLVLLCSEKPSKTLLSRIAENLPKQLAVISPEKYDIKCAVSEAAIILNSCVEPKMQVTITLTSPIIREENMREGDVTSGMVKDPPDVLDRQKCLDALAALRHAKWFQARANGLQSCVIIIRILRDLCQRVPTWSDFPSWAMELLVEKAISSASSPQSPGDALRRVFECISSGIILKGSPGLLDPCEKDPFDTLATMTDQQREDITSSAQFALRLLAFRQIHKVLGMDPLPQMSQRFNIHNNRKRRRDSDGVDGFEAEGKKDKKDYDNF

According to PMC4441479:

Target: ZAP-L-FL (FLAG-tagged ZAP-L) (human) (UniProt Q7Z2W4)
Assay: affinity purification with mass spectrometry; ZAP-L-FL or empty vector transfected in 293T; IP with α-FLAG agarose from whole cell lysates (sonication) in the presence or absence of 30 μg/ml RNase; tandem MS; hits: 3 or more peptides, two replicate IPs, not in vector control

binding, binds:
Carbamoyl-phosphate synthetase 2, aspartate transcarbamylase (from UniProt P27708 1-2225)
Chaperonin containing TCP1, subunit 6A (zeta 1) (from UniProt P40227-1 1-531)
Chaperonin containing TCP1, subunit 7 (eta) (from UniProt Q99832-1 1-543)
Chromodomain helicase DNA binding protein 4 (from UniProt Q14839-1 1-1912)
DnaJ (Hsp40) homolog, subfamily A, member 1 (from UniProt P31689-1 1-397)
DnaJ (Hsp40) homolog, subfamily A, member 2 (from UniProt O60884 1-412)
ELAV (embryonic lethal, abnormal vision, Drosophila)-like 1 (Hu antigen R) (from UniProt Q15717-1 1-326)
Fragile X mental retardation, autosomal homolog 2 (from UniProt P51116 1-673)
GTPase activating protein (SH3 domain) binding protein 1 (from UniProt Q13283-1 1-466)
General transcription factor IIIC, polypeptide 1, alpha 220kDa (from UniProt Q12789-2 1-2109)
General transcription factor IIi (from UniProt P78347-1 1-998)
Glutamyl-prolyl-tRNA synthetase (from UniProt P07814 1-1512)
Heat shock 70kDa protein 4 (from UniProt P34932-1 1-840)
Heat shock 105kDa/110kDa protein 1 (from UniProt Q92598-1 1-858)
Heterochromatin protein 1-binding protein 3 (from UniProt Q5SSJ5-1 1-553)
Heterogeneous nuclear ribonucleoprotein U-like 1 (from UniProt Q9BUJ2-1 1-856)
Histone deacetylase 1 (from UniProt Q13547 1-482)
Insulin-like growth factor 2 mRNA binding protein 3 (from UniProt O00425-1 1-579)
Interleukin enhancer-binding factor 2 (from UniProt Q12905 1-390)
KRI1 homolog (S. cerevisiae) (from UniProt Q8N9T8 1-703)
Ly1 antibody reactive (from UniProt Q9NX58 1-379)
Poly [ADP-ribose] polymerase 1 (from UniProt P09874 1-1014)
Protein phosphatase 2, catalytic subunit, alpha isozyme (from UniProt P67775-1 1-309)
Protein phosphatase 2, regulatory subunit A, alpha (from UniProt P30153 1-589)
Protein phosphatase 2, regulatory subunit A, beta (from UniProt P30154-4 1-556)
RuvB-like 1 (E. coli) (from UniProt Q9Y265-1 1-456)
RuvB-like 2 (E. coli) (from UniProt Q9Y230-1 1-463)
Staufen double-stranded RNA binding protein 1 (from UniProt O95793-2 1-496)
Topoisomerase (DNA) I (from UniProt P11387 1-765)
Tripartite motif containing 25/E3 ubiquitin/ISG15 ligase TRIM25 (from UniProt Q14258 1-630)
Ubiquitin specific peptidase 7 (herpes virus-associated) (from UniProt Q93009-1 1-1102)
Ubiquitin specific peptidase 9, X-linked (from UniProt Q93008-3 1-2570)
YTH domain family, member 2 (from UniProt Q9Y5A9-1 1-579)
Zinc finger RNA binding protein (from UniProt Q96KR1 1-1074)
Zinc finger protein 24 (from UniProt P17028-1 1-368)

Results are given in words; binding and its absence hold for the method and conditions named. Binding seen in cells or lysates may run through a third protein. These calls come from enrichment with a bait or labelling near it, and not all partners need be listed.
